Experimental data taken from PMC4330366.
Results are given in words; binding and its absence hold for the method and conditions named. In cells and extracts the contact can be indirect. Some entries that bind do so weakly or less than the wild type.

Protein sequences, listed by entry. Tags and fused reporters are not part of them.
UniProt P53115: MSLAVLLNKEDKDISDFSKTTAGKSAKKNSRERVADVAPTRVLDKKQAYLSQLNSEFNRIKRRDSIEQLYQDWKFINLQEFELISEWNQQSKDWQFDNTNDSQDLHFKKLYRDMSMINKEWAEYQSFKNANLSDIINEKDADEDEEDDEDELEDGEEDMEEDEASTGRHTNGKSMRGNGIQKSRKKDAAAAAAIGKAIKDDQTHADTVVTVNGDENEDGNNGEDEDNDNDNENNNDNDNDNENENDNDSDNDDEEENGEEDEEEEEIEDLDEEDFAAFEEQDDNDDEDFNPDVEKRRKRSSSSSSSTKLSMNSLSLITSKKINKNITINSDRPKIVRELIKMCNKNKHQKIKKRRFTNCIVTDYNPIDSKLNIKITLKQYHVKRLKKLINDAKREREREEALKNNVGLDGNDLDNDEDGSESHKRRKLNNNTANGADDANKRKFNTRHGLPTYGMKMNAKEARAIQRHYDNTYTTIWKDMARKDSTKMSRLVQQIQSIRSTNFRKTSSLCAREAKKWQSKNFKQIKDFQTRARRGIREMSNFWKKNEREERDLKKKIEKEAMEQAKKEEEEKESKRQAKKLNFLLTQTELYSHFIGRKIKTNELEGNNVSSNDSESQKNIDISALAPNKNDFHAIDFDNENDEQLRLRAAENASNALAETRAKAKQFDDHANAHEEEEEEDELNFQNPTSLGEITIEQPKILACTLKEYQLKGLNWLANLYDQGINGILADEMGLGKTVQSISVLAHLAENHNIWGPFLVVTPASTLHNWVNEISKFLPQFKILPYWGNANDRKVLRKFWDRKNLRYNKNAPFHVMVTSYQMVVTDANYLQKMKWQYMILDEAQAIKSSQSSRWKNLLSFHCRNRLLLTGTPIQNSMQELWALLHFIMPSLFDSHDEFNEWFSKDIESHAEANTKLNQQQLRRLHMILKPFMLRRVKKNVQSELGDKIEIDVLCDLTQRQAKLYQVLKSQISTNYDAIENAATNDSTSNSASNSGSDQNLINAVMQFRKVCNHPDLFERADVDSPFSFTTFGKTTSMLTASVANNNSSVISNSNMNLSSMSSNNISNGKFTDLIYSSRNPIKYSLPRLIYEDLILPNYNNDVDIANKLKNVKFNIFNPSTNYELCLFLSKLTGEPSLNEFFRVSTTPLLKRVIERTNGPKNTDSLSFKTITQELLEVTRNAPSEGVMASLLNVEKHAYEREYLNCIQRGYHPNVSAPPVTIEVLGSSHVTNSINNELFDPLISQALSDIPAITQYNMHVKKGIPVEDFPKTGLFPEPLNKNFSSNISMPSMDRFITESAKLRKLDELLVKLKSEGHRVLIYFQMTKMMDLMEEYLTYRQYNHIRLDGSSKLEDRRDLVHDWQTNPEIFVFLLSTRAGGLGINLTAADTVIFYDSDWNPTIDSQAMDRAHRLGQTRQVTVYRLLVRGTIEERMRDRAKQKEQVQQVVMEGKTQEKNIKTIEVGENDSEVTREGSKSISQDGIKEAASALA

Target: Ino80-myc (INO80-9MYC) (S. cerevisiae (endogenous locus, W303 background)) (UniProt P53115)
Assay: co-IP; yeast whole cell lysates (bead beating; 50-mM HEPES-KOH pH 7.5, 100-mM NaCl, 1-mM EDTA, 0.25% Nonidet-P40, 10% glycerol); Ino80-myc precipitated with anti-Myc 9E10.2 and Protein A-Sepharose, 4°C; washes up to 250-mM NaCl; blot probed with anti-Lys20

B1: lys20-cat (lys20-E155A) (enzyme, UniProt P48570 1-428)
chain: MTAAKPNPYAAKPGDYLSNVNNFQLIDSTLREGEQFANAFFDTEKKIEIARALDDFGVDYIELTSPVASEQSRKDCEAICKLGLKAKILTHIRCHMDDAKVAVETGVDGVDVVIGTSKFLRQYSHGKDMNYIAKSAVEVIEFVKSKGIEIRFSSADSFRSDLVDLLNIYKTVDKIGVNRVGIADTVGCANPRQVYELIRTLKSVVSCDIECHFHNDTGCAIANAYTALEGGARLIDVSVLGIGERNGITPLGGLMARMIVAAPDYVKSKYKLHKIRDIENLVADAVEVNIPFNNPITGFCAFTHKAGIHAKAILANPSTYEILDPHDFGMKRYIHFANRLTGWNAIKARVDQLNLNLTDDQIKEVTAKIKKLGDVRSLNIDDVDSIIKNFHAEVSTPQVLSAKKNKKNDSDVPELATIPAAKRTKPSA
binding: binds

B2: lys20-moon (lys20-V399-I418Δ) (enzyme, UniProt P48570)
chain: MTAAKPNPYAAKPGDYLSNVNNFQLIDSTLREGEQFANAFFDTEKKIEIARALDDFGVDYIELTSPVASEQSRKDCEAICKLGLKAKILTHIRCHMDDAKVAVETGVDGVDVVIGTSKFLRQYSHGKDMNYIAKSAVEVIEFVKSKGIEIRFSSEDSFRSDLVDLLNIYKTVDKIGVNRVGIADTVGCANPRQVYELIRTLKSVVSCDIECHFHNDTGCAIANAYTALEGGARLIDVSVLGIGERNGITPLGGLMARMIVAAPDYVKSKYKLHKIRDIENLVADAVEVNIPFNNPITGFCAFTHKAGIHAKAILANPSTYEILDPHDFGMKRYIHFANRLTGWNAIKARVDQLNLNLTDDQIKEVTAKIKKLGDVRSLNIDDVDSIIKNFHAEVSTPQPAAKRTKPSA
binding: binds
